The assay in a line: qHTS Assay for Modulators of Lamin A Splicing. As to conditions: HeLa LMNA splicing GFP/RFP minigene ratio, 48 h. From the text: NCGC Assay Overview: Hutchinson-Gilford Progeria Syndrome (HGPS) is a pediatric premature aging disease caused by a spontaneous mutation in the lamin A/C (LMNA) gene. The mutation activates a cryptic splice site in the LMNA pre-mRNA which results in production of a pre-lamin A protein that cannot be processed properly. The mutant protein accumulates in the nucleus and negatively affects numerous cellular functions. Correction of the splicing defect in HGPS patient cells using a targeted oligonucleotide (exo11) leads to reversal of the cellular disease phenotypes. To identify small molecule modulators of aberrant LMNA splicing, a homogenous assay was constructed in HeLa cells that used a GFP containing minigene to report on correction of aberrant splicing in lamin A and a RFP (DsRed2) to report on cell viability, uniformity and nonspecific effects on the assay signal. This assay was adapted to laser-scanning microplate cytometry (Acumen, TTP Labtech) where miniaturization of the assay to a 1,536-well plate format was possible. References: Bowen, W. P.; Wylie, P. G. Application of Laser-Scanning Fluorescence Microplate Cytometry in High Content Screening. Assay Drug Dev Technol 2006;4:209-221. Scaffidi P, Misteli T. Reversal of the cellular phenotype in the premature aging disease Hutchinson-Gilford progeria syndrome. Nat.
NCGC Assay Protocol Summary: Reagents/Controls: Stable clones expressing DsRed2 and lamin A-EGFP were generated by Cell and Molecular Technologies in S3 HeLa cells. HeLa cells were prepared for the assay when they were 70-90% confluent. The cells were counted and resuspended in Opti-MEM I (no phenol red; Gibco), 2% FBS, 1% penicillin/ streptomycin (Gibco) at concentration of 120 cells/uL concentration. The suspension was passed through a Falcon basket filter with pore size 40um (Beckton Dickson). Control titrations: column […] 1536-well plate contained a sixteen point titration (1:2 dilutions) in duplicate of ancitabine (Sigma: A8598) beginning at 40 uM final concentration. Column 2 contained a sixteen point titration (1:2 dilutions) of cycloheximide beginning at 1.4 mM final concentration. Column 3 contained ancitabine at 40 uM and column 4 contained was the vehicle control (0.5% DMSO final concentration). Assay Steps: 5 uL of HeLa cells were plated in Aurora LoBase black clear bottom (cyclic-olefin polymer) 1536-well plates at a final density of 600 cells/well. Controls and library compounds were added with a 1536-well pin array using the Kalypsys pin-tool. The plates were then incubated for 48 hrs in a cell-culture incubator (37 °C; 5% CO2, 98% humidity). Following incubation the plates were read on the Acumen Explorer using the 488 nm laser. Data was collected on objects between 10 and 100 um in size. Cell objects were defined by a 15 um width x 10 um depth filter. The ratio of the total object intensity in PMT1 (500-530 nm emission; GFP) over PMT3 (575-640 nm emission; RFP) was calculated for analysis. Keywords: NIH Roadmap, MLSCN, MLI, MLSMR, qHTS, NCGC, lamin A, Progeria, RNA splicing.

Where [1] appears, read: measured here: RFP viability control channel.
Where [2] appears, read: measured here: GFP splicing reporter channel.

Several values for one entry are separate records, joined by “and”; a condition that tells them apart may be missing. Identical values can stand only once. Some of the results follow. Further columns of the screen follow, without active or inactive calls. Compounds called inactive in the main read-out are mostly missing here. Words in brackets tell the shape of the fitted curve; partial curves, single points and poor fits give uncertain potencies.

Turning to `CCN(CC)C(=O)c1c(C)[nH]c(=S)c(C#N)c1-c1ccco1`, the AC50 under setting [1] is 3.98 nM [falling, full curve, poor fit].
The same measure, in the same setting: the figure for `CN1[C@@H]2CC[C@H]1CC(OC(=O)C1C=Nc3ccccc31)C2` (stereo partly specified) is 35500 nM [rising, single point].
Consider `COc1cc([C@@H]2c3cc4c(cc3[C@H](O)C3COC(=O)[C@@H]32)OCO4)cc(OC)c1OC` (stereo partly specified), for which the AC50 reads like this: under setting [2], 14.1 nM [falling, full curve]; under setting [1], 14.1 nM [falling, full curve].
Regarding `NN=C(N)N`, the AC50 under setting [1] is 15.8 nM [rising, full curve, poor fit].
Regarding `COc1ccc2c3c1O[C@H]1C(=O)CC[C@@]4(O)C(C2)N(CC2CC2)CCC314` (stereo partly specified), the AC50 was 35500 nM [falling, single point] under setting [2] and 15800 nM [falling, partial curve, poor fit] under setting [1].
For the compound `c1ccc(C(c2ccccc2)N2CCN(c3ccc4ccccc4n3)CC2)cc1`, the AC50 is, setting by setting: under setting [2], 35500 nM [rising, single point]; under setting [1], 35500 nM [rising, partial curve].
Turning to `Cc1cccc(OP(=O)(NCc2ccccc2)Oc2cccc(C)c2)c1`, under setting [1], the AC50 was 14100 nM [rising, single point].
Same read-out and setting: then `CCCC(C)C1(CC)C(=O)NC(=Nc2ccccc2)NC1=O` (stereo unspecified), with 31600 nM [rising, single point].
In the case of `COc1ccc(-c2nc3ccccc3c(=O)o2)cc1`, the AC50 is, setting by setting: under setting [2], 7.08 nM [falling, full curve, poor fit]; under setting [1], 5.01 nM [falling, full curve, poor fit].
Regarding `COc1ccc(OCC(=O)N2CCN(Cc3c[nH]c4ccccc34)CC2)cc1`, under setting [1], the concentration at half-maximal activity (AC50) was 12600 nM [rising, partial curve].
Still for that read-out and setting: then `O=[N+]([O-])c1cccc(C2N3CCCN23)c1` (stereo unspecified), with 158 nM [rising, full curve, poor fit].
As for `Clc1ccc(C(c2ccc(Cl)cc2)C(Cl)(Cl)Cl)cc1`, the AC50 by setting is: under setting [2], 2.24 nM [falling, full curve, poor fit]; under setting [1], 501 nM [falling, partial curve, poor fit].
As for `COc1ccc(N2C(=O)NC(=O)/C(=C\c3ccc([N+](=O)[O-])s3)C2=O)cc1`, the AC50 under setting [1] was 10000 nM [rising, partial curve].
As for `OC(c1ccccc1)(c1ccccc1)C1CCNCC1`, the AC50 reads like this: under setting [2], 5010 nM [falling, partial curve, poor fit]; under setting [1], 3550 nM [falling, full curve, poor fit].
Regarding `S=c1[nH]nc(-c2ccco2)n1Cc1ccccc1`, the AC50 under setting [1] was 28200 nM [falling, single point].
With `CCc1ccc(CN2CCCC(C(=O)c3sccc3C)C2)o1` (stereo unspecified), under setting [1], the AC50 was 22.4 nM [falling, full curve, poor fit].
As to `CC1=CC(=O)C2=C(C)C[C@@H](O)[C@@H]3[C@@H](OC(=O)[C@H]3C)[C@H]12`, the AC50 runs as follows: under setting [2], 63.1 nM [falling, single point]; under setting [1], 70.8 nM [falling, single point].
With `C[C@]12CCC(=O)C=C1CC[C@@H]1[C@@H]2CC[C@]2(C)C(=O)CC[C@@H]12`, the AC50 was 6310 nM [falling, single point] under setting [2]; 10 µM [rising, partial curve] and 25.1 nM [rising, full curve, poor fit] under setting [1].
Consider `O=C(CSc1nnc(NC(=O)C2CCCCC2)s1)NCc1ccco1`, for which the AC50 is 22.4 nM [falling, full curve, poor fit] under setting [2] and 25.1 nM [falling, full curve] under setting [1].
As for `CN(C)CCC=C1c2ccccc2CCc2ccccc21`, the AC50 runs as follows: under setting [2], 5.01 nM [falling, full curve, poor fit]; under setting [1], 1410 nM [rising, partial curve, poor fit].
Regarding `Cc1ccnc2c1NC(=O)c1cccnc1N2C1CC1`, the AC50 reads like this: under setting [2], 158 nM [rising, full curve, poor fit]; under setting [1], 35.5 nM [rising, full curve, poor fit].
Turning to `CC(C)NS(=O)(=O)c1ccc(OCC(=O)N2CCN(Cc3ccc4c(c3)OCO4)CC2)c(Cl)c1`, the concentration at half-maximal activity (AC50) under setting [1] was 17800 nM [rising, partial curve].
For `NC(=O)OCCCc1ccccc1`, the AC50 by setting is: under setting [2], 2.24 nM [falling, full curve, poor fit]; under setting [1], 79.4 nM [falling, full curve, poor fit].
On to `CC[C@H]1CN2CCc3cc(OC)c(OC)cc3[C@H]2C[C@@H]1C[C@@H]1NCCc2cc(OC)c(OC)cc21`, for which the AC50 is, setting by setting: under setting [2], 501 nM [falling, full curve]; under setting [1], 794 nM [falling, full curve].
Take `O=c1oc2ccccc2c(O)c1C(c1ccccn1)c1c(O)c2ccccc2oc1=O`: the AC50 was 12600 nM [falling, partial curve] under setting [2] and 39800 nM [falling, partial curve, poor fit] under setting [1].
On to `CCOc1c(Cl)cc(CNC(C)C(O)c2ccccc2)cc1OC` (stereo unspecified), for which the AC50 reads like this: under setting [2], 4.47 nM [falling, full curve, poor fit]; under setting [1], 3.16 nM [falling, full curve, poor fit].
Take `NC1CCc2cc(O)c(O)cc2C1` (stereo unspecified): under setting [2], the AC50 is 5620 nM [falling, partial curve, poor fit].
Regarding `Cc1ccc(N2C(=O)NC(=O)/C(=C/c3cnc(-c4ccccc4)nc3)C2=O)cc1C`, under setting [1], the concentration at half-maximal activity (AC50) is 2000 nM [falling, partial curve, poor fit].
Regarding `Cn1c(=O)oc2cc(S(=O)(=O)N3CCOCC3)ccc21`, under setting [1], the AC50 is 158 nM [rising, full curve, poor fit].
As to `CCOP(=O)(OCC)C(c1ccccc1)N(C)C=O` (stereo unspecified), the AC50 reads like this: under setting [2], 200 nM [falling, partial curve, poor fit]; under setting [1], 25.1 nM [falling, full curve, poor fit].
Take `CC(C)OCCCNC(=O)c1c(N)n(Cc2cccs2)c2nc3ccccc3nc12`: the AC50 runs as follows: under setting [2], 35500 nM [falling, single point]; under setting [1], 35500 nM [falling, single point].
`C[C@H]1OC[C@@H](C[N+](C)(C)C)O1`: under setting [2], the AC50 is 5.01 nM [falling, full curve, poor fit].
As to `C=CC1CN2CCC1CC2C(OC(=O)OCC)c1ccnc2ccc(OC)cc12` (stereo unspecified), the AC50 is, setting by setting: under setting [2], 447 nM [falling, full curve, poor fit]; under setting [1], 398 nM [falling, single point].

The values are drawn from PubChem BioAssay AID1487 (National Center for Advancing Translational Sciences (NCATS), 2009).
